According to patent publication US20110124586A1, “EXTERNAL PREPARATION FOR SKIN, AND WRINKLE-REPAIRING AGENT” (Kao Corporation, priority 2008, published 2011):
At least one structure is not confirmed: it was looked up by name or label, or the drawing left a doubt.

System: photoaged skin
Assay: Wrinkle reduction test on photoaged skin of hairless mice (UVA/UVB irradiation)
Assay type: in vivo
Settings: photoaged hairless mouse skin
Description: A wrinkle-reducing effect in the case of applying a sample containing a base alone or lauryl thiogalactoside (compound of Production Example 2) to photoaged skin was examined by the following test methods.
Ten hairless mice, which were 10 weeks old at the start of the test, were used for each group.
Photoaging was induced by irradiation with UVA and UVB once a day, five times a week for 8 weeks. An irradiation dose was increased every week from 20 J/cm^2 to 25 J/cm^2 and to 30 J/cm^2 for UVA, from 20 mJ/cm^2 to 30 mJ/cm^2 and to 40 mJ/cm^2 for UVB, and the maximum dose was irradiated in Week 3 or later.
A wrinkle-reducing effect was evaluated by a wrinkle score and an epidermal thickness. The wrinkle score was determined in accordance with the method of Bissett et al. (Photochem. Photobiol. 46: 367-378, 1987). In other words, the size and depth of wrinkles were comprehensively evaluated with naked eyes and scored with the following four grades: 3, “large and deep wrinkles can be confirmed”; 2, “wrinkles can be confirmed”; 1, “no wrinkles can be confirmed”; and 0, “normal skin texture can be observed”. […]
A sample containing lauryl thiogalactoside in an amount of 1% in a 50 vol % ethanol aqueous solution (base) was prepared (Example 1). […] Subsequently, after the completion of the application, the wrinkle score was determined. […]

SMILES: CC1=C(/C=C/C(C)=C/C=C/C(C)=C/C(=O)O)C(C)(C)CCC1 [retinoic acid, reference compound]
- Effect on epidermal thickening (in words): has a function of enhancing the thickening
- Effect on wrinkles / wrinkle score (in words): effective for the wrinkle score
